Tested on: Hsp90 complexes in K562 cell extract
Experiment: Nano-LC-MS/MS of PU-beads pull-downs
Format: binding
Conditions: for Matched Peptides by Fraction JA07 / Matched Peptides by Fraction JA14 / MAXIMUM matched peptides / Matched Peptides by Fraction JA06 / Matched Peptides by Fraction JA13 / Matched Peptides by Fraction JA05 / Matched Peptides by Fraction JA04 / Matched Peptides by Fraction JA03 / Matched Peptides by Fraction JA02 / Matched Peptides by Fraction JA01 / Matched Peptides by Fraction JA12 / Matched Peptides by Fraction JA11 / Matched Peptides by Fraction JA10 / Matched Peptides by Fraction JA09 / Matched Peptides by Fraction JA08: PU-beads pull-down; for Matched Peptides by Fraction JA07: Run1, gel size cut <40; for Matched Peptides by Fraction JA14: Run2, gel size cut <40; for MAXIMUM matched peptides: maximum over fractions JA01-JA14; for Total fmol: protein isolated in PU-beads pull-downs, Waters Xevo QTof MS; for Matched Peptides by Fraction JA06: Run1, gel size cut 40-60; for Matched Peptides by Fraction JA13: Run2, gel size cut 40-60; for Matched Peptides by Fraction JA05: Run1, gel size cut 60-80; for Matched Peptides by Fraction JA04: Run1, gel size cut 80-110; for Matched Peptides by Fraction JA03: Run1, gel size cut 110-150; for Matched Peptides by Fraction JA02: Run1, gel size cut 150-200; for Matched Peptides by Fraction JA01: Run1, gel size cut >200; for Matched Peptides by Fraction JA12: Run2, gel size cut 60-80; for Matched Peptides by Fraction JA11: Run2, gel size cut 80-110; for Matched Peptides by Fraction JA10: Run2, gel size cut 110-150; for Matched Peptides by Fraction JA09: Run2, gel size cut 150-200; for Matched Peptides by Fraction JA08: Run2, gel size cut >200
Protocol: Protein cargo isolated from cell lysate with PU-beads or control-beads was subjected to proteomic analysis by nano liquid chromatography coupled to tandem mass spectrometry (nano LC-MS/MS). Initial protein identification was performed using the Mascot search engine, and was further evaluated using Scaffold Proteome Software (Tables 5a-d).
Lysates prepared as mentioned above were first pre-cleaned by incubation with control beads overnight at 4° C. […] Beads were washed with lysis buffer, proteins eluted by boiling in 2% SDS, separated on a denaturing gel and Coomassie stained according to manufacturer's procedure (Biorad). […] Analyses of the batch purified pools were done using a QSTAR-Elite hybrid quadrupole time-of-flight mass spectrometer (QTof MS) (AB/MDS Sciex), equipped with a nano spray ion source. Peptide mixtures (in 20 μL) are loaded onto a trapping guard column (0.3×5-mm PepMap C18 100 cartridge from LC Packings) using an Eksigent nano MDLC system (Eksigent Technologies, Inc) at a flow rate of 20 μL/min. […] Electrospray ionization (ESI) needle voltage was set at about 1800 V. The mass analyzer is operated in automatic, data-dependent MS/MS acquisition mode, with the threshold set to 10 counts per second of doubly or triply charged precursor ions selected for fragmentation scans. Survey scans of 0.25 sec are recorded from 400 to 1800 amu; up to 3 MS/MS scans are then collected sequentially for the selected precursor ions, recording from 100 to 1800 amu. The collision energy is automatically adjusted in accordance with the m/z value of the precursor ions selected for MS/MS. Selected precursor ions are excluded from repeated selection for 60 sec after the end of the corresponding fragmentation duty cycle. […] One missed tryptic cleavage site was allowed, precursor ion mass tolerance=0.4 Da fragment ion mass tolerance=0.4 Da, protein modifications were allowed for Met-oxide, Cys-acrylamide and N-terminal acetylation. MudPit scoring was typically applied with ‘require bold red’ activated, and using significance threshold score p<0.05. Unique peptide counts (or ‘spectral counts’) and percent sequence coverages for all identified proteins were exported to Scaffold Proteome Software (version 2_06_01, www.proteomesoftware.com) for further bioinformatic analysis (Table 5a). Using output from Mascot, Scaffold validates, organizes, and interprets mass spectrometry data, allowing more easily to manage large amounts of data, to compare samples, and to search for protein modifications.

Substance	MAXIMUM matched peptides	Total fmol [fmol]	Matched Peptides by Fraction JA06	Matched Peptides by Fraction JA13	also measured
14-3-3 protein epsilon; YWHAE	17	20.1372			Matched Peptides by Fraction JA07: 15; Matched Peptides by Fraction JA14: 17
DnaJ homolog subfamily A member 1	26	49.8849	26	26	
Heat shock protein HSP 90-beta	260	2708.8638	55	51	Matched Peptides by Fraction JA05: 54; Matched Peptides by Fraction JA04: 260; Matched Peptides by Fraction JA03: 11; Matched Peptides by Fraction JA02: 5; Matched Peptides by Fraction JA07: 20; Matched Peptides by Fraction JA01: 14; Matched Peptides by Fraction JA12: 57; Matched Peptides by Fraction JA11: 242; Matched Peptides by Fraction JA10: 24; Matched Peptides by Fraction JA09: 5; Matched Peptides by Fraction JA14: 19; Matched Peptides by Fraction JA08: 25
Mitogen-activated protein kinase 3; ERK-1	27	6.6438	27	27	
Talin-1; TLN-1	25	3.1856			Matched Peptides by Fraction JA01: 19; Matched Peptides by Fraction JA08: 25
Activator of 90 kDa heat shock protein ATPase homolog 1; AHSA1	12	19.5699	12	12	
Tyrosine-protein phosphatase non-receptor type 1; PTPN1	9	3.5169	9		
ELAV-like protein 1	21	55.2953			Matched Peptides by Fraction JA07: 20; Matched Peptides by Fraction JA14: 21
Histone H1.2	7	7.5569			Matched Peptides by Fraction JA07: 7; Matched Peptides by Fraction JA14: 6
DnaJ homolog subfamily A member 2	23	31.2111	23	22	
Protein SET	9	21.0046	7	9	
Probable E3 ubiquitin-protein ligase makorin-2	12	7.3243	11	12	
Probable cytosolic iron-sulfur protein assembly protein CIAO1	13	15.5890	8	13	
Interleukin enhancer-binding factor 2; ILF2	25	48.8644	25	20	
Mitogen-activated protein kinase 14; p38	11	2.1763	9	11	
Signal transducer and activator of transcription 5B	64	21.2998			Matched Peptides by Fraction JA04: 64; Matched Peptides by Fraction JA11: 62
Serine/threonine-protein phosphatase 2A 65 kDa regulatory subunit A alpha isoform	78	125.6820		11	Matched Peptides by Fraction JA05: 78; Matched Peptides by Fraction JA12: 76
Mitogen-activated protein kinase 6; ERK3	11	3.0471	9	11	

Substance	MAXIMUM matched peptides	Total fmol [fmol]	Matched Peptides by Fraction JA06	Matched Peptides by Fraction JA13	also measured
Histone deacetylase 2; HDAC2	11	15.8525			Matched Peptides by Fraction JA05: 7; Matched Peptides by Fraction JA12: 11
Ribosomal protein S6 kinase alpha-3; RSK2	20	11.9267			Matched Peptides by Fraction JA04: 20; Matched Peptides by Fraction JA11: 15
Proto-oncogene serine/threonine-protein kinase pim-1	4	0.6796			Matched Peptides by Fraction JA14: 4
Signal transducer and activator of transcription 3	24	15.8176			Matched Peptides by Fraction JA04: 22; Matched Peptides by Fraction JA11: 24
5′-AMP-activated protein kinase subunit gamma-1; PRKAG1	19	25.9468			Matched Peptides by Fraction JA07: 19; Matched Peptides by Fraction JA14: 19
Histone deacetylase 6; HDAC6	11	8.6654			Matched Peptides by Fraction JA02: 11; Matched Peptides by Fraction JA09: 9
DNA-dependent protein kinase catalytic subunit	251	71.4210			Matched Peptides by Fraction JA02: 30; Matched Peptides by Fraction JA01: 236; Matched Peptides by Fraction JA09: 41; Matched Peptides by Fraction JA08: 251
Mitotic checkpoint protein BUB3	10	12.0013	8	10	
Heat shock protein beta-1; Hsp27	24	162.0092			Matched Peptides by Fraction JA07: 24; Matched Peptides by Fraction JA14: 21
Serine-threonine kinase receptor-associated protein; STRAP	16	9.5433	16	10	
Heat shock protein HSP 90-alpha	234	1351.4965	38		Matched Peptides by Fraction JA05: 47; Matched Peptides by Fraction JA04: 209; Matched Peptides by Fraction JA03: 7; Matched Peptides by Fraction JA07: 14; Matched Peptides by Fraction JA01: 6; Matched Peptides by Fraction JA11: 234; Matched Peptides by Fraction JA10: 20; Matched Peptides by Fraction JA14: 11; Matched Peptides by Fraction JA08: 14
Stress-induced-phosphoprotein 1; HOP	72	129.2074			Matched Peptides by Fraction JA05: 68; Matched Peptides by Fraction JA12: 72
Heat shock 70 kDa protein 1A/1B	82	115.7597			Matched Peptides by Fraction JA05: 65; Matched Peptides by Fraction JA12: 82
Mitogen-activated protein kinase kinase kinase 4; MEKK4	11	4.3965			Matched Peptides by Fraction JA02: 6; Matched Peptides by Fraction JA09: 11
Heat shock 70 kDa protein 6	44	1.6158			Matched Peptides by Fraction JA05: 39; Matched Peptides by Fraction JA12: 44
Protein ALO17	34	9.9440			Matched Peptides by Fraction JA01: 22; Matched Peptides by Fraction JA08: 34
Histone deacetylase 1; HDAC1	16	19.2088			Matched Peptides by Fraction JA05: 11; Matched Peptides by Fraction JA12: 16
Heat shock cognate 71 kDa protein	105	211.9690			Matched Peptides by Fraction JA05: 73; Matched Peptides by Fraction JA12: 105

— US20220074941A1, “HSP90 COMBINATION THERAPY” (Sloan-Kettering Institute for Cancer Research, priority 2011, published 2022)
